The target of assay [1] is T1, BoYb CS_MUT1 (Drosophila) (UniProt Q9VNP5).
T1 sequence: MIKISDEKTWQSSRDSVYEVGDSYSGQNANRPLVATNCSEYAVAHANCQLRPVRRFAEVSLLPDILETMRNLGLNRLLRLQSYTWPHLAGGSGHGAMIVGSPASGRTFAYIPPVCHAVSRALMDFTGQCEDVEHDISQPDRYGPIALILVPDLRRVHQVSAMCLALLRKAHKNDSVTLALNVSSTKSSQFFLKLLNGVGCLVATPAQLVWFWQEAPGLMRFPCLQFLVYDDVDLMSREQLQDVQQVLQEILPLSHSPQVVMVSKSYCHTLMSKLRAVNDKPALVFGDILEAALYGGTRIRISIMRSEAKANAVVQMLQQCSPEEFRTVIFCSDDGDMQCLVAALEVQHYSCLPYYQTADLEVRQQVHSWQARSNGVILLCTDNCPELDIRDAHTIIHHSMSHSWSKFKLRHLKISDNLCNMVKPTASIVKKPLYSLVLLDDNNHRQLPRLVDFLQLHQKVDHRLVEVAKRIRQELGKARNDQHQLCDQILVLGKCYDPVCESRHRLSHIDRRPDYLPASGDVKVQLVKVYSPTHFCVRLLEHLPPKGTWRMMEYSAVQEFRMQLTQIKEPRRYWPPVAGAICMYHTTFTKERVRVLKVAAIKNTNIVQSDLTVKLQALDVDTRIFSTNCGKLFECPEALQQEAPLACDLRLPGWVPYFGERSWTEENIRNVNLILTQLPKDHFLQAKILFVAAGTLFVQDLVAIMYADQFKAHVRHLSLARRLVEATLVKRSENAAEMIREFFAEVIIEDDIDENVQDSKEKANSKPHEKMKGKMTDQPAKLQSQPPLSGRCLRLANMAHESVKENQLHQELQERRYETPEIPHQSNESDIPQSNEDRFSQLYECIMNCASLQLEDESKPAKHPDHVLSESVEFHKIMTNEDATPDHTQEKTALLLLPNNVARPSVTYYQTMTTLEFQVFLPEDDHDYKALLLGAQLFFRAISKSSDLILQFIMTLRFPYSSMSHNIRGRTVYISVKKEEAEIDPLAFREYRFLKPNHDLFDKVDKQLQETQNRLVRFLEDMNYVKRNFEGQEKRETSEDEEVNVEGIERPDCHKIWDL
The assay can be described thus: ReLo.

Assay [2] has as its target T2, BoYb NTD_MUT and CS_MUT1 (full-length) (Drosophila) (UniProt Q9VNP5).
T2 sequence: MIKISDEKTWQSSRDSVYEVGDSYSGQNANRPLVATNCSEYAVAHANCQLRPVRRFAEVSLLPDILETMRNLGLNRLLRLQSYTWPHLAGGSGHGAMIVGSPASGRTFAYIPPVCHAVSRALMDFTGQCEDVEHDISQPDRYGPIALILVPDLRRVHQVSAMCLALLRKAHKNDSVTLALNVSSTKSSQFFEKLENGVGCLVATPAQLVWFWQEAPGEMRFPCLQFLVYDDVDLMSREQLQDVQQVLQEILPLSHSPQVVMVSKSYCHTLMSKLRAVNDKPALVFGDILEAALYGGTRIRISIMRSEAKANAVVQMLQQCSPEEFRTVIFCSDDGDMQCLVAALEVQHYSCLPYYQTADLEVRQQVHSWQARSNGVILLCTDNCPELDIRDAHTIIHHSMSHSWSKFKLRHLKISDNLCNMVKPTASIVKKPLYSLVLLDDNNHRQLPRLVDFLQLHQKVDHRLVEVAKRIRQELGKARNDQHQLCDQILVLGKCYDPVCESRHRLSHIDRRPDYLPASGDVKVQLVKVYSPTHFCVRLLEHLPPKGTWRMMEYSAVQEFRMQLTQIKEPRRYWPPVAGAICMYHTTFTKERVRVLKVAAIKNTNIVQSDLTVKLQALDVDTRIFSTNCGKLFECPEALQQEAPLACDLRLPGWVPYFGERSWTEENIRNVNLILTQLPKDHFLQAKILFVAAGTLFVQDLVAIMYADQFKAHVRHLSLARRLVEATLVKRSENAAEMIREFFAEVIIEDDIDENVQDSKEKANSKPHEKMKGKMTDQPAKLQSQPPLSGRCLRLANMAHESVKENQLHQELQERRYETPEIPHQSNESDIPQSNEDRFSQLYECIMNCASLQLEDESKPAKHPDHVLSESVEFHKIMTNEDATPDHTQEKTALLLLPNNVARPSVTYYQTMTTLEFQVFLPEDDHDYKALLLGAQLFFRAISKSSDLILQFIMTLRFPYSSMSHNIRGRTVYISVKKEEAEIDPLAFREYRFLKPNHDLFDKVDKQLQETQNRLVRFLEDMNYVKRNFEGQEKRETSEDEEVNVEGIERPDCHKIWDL
The assay can be described thus: ReLo.

Results are given in words; binding and its absence hold for the method and conditions named. Some binding calls cover weakened binding; strength is not graded here.

B1: Vreteno (protein, UniProt Q9VCU7 1-691)
chain: MESESSQDDWSAFDPMSREYYDQVGNRYTNESGQKLIMEAPLPPKDEKEQRATRQAKYPYLVVPKSSPYVTEKMLINFFGRALIKEMEFRRLSRVYFVYFENIASLETAQQRVQRYPNLIKCITGRPQKEREITSDPVTSTEPMPTPGPAISATERTPVNHNREVPISTGGQNHPEFFRPPLVTKDDYKRGSLLATNDPIQRYLNVKYEFALERHDIYKLKDETRIPQVVLHFRSGRTIPLSTVAVTEEDKTKSLLEDGVSKCVVCQNWTDTFCKLCKMPFCNASCFADVAEQHKQACGKGEILNLDEKVGRKYPKPGLPPSGSKVRITAFEQTNVVYVRSADIQIDIAYYTVLTEVMMLGKDASKLQSTPVCGQIVLYKFEGHMSRAMVLNVDNIKEIYVVFIDFGSVEVTQLERLYECSSYLAGLTCYPVAVKLRGVPRRFVGPNIREVMYELDQSLVFNIKYSSREYDTSKGMQVVVMTEIDINRSLNRLFKTILTPVEPSVSDLGYKEDCLPYIPLHCGKNINVVVMDNTFIQCGFIYCTSIDLAYEVTKMQRDIQEYGEKIAKCATYAPPINELCIAKYEGKWRRGLSVELVGDGYPSILFIDYGNIVPTHVTDIRPYPPQFIFPIMTTQLDLIGVPEKPTDEQIKWLDKNYPIGSVITCSEITFDEETNSYSTRIEKLQEFLSLD
In the case of B1, the binding result is “binds” in assay [1] and “no binding” in assay [2].

(Values after paper doi:10.1101/2024.05.31.596839.)
